Each structure is given as a SMILES string. The list is a part of this screen's results and no random one: it gathers tests that were run many times, whatever their T/C, doses with no T/C, and many T/C values between a quarter and a half above the control. Other doses and runs of a compound stand elsewhere. T/C gives the treated animals as a percentage of the vehicle group. Some entries give survivors of the animals treated and no T/C: the source holds a T/C of zero for them, seemingly a mark for toxic or unscored doses. Some survivor counts are full or nearly so, which does not show that the dose was tolerated: survival well below the control is almost never listed, so the zero probably covers shortened survival too. Survivors were counted at the toxicity check, usually on the fifth day, unless a day is given; later deaths do not show. Schedule codes are those of the source, taken here to give the interval after Q, in days (D) or hours (H), and the number of doses after X. Additions like (4×) count equal records among those shown. Some entries hold several experiments; the values are given in rising order. Where survival is the endpoint, this PubChem deposit counts one and a half times the control or more as active, and values a quarter to a half above the control carry no call in these data; other NCI protocols may use other cut-offs. Some T/C values are followed by the survivors on the day toxicity was checked, most often the fifth; without a count, all were alive then.

In the assay the test system is P388 leukemia ip, CD2F1 mice, survival T/C. Put plainly: NCI In Vivo Anticancer Drug Screen. Data for tumor model P388 Leukemia (intraperitoneal) in CD2F1 (CDF1) mice. The note with it: T/C endpoint: median survival time, higher T/C = longer survival.
The mark [1] stands for this setting: dose: 50.0 mg/kg/injection, schedule: Q01DX005 (ip), vehicle: saline with Tween-80.
The mark [2] stands for this setting: dose: 100.0 mg/kg/injection, schedule: Q01DX005 (ip), vehicle: saline with Tween-80.
[3] abbreviates: dose: 200.0 mg/kg/injection, schedule: Q01DX005 (ip), vehicle: saline with Tween-80.
Setting [4] is: dose: 12.5 mg/kg/injection, schedule: Q01DX005 (ip), vehicle: saline with Tween-80.
Where [5] appears, read: dose: 400.0 mg/kg/injection, schedule: Q01DX001 (ip), vehicle: Klucel (hydroxypropylcellulose) (HPC).
[6] abbreviates: dose: 240.0 mg/kg/injection, schedule: Q01DX005 (ip), vehicle: saline with Tween-80.
[7] abbreviates: dose: 0.25 mg/kg/injection, schedule: Q01DX005 (ip), vehicle: saline.

Regarding `COc1cc2c(c(NC(C)CCCN=C(N)NC(N)=NC(C)C)c1)NCCC2` (stereo unspecified), the survivor count by setting is: under setting [1], 0 of 6; under setting [2], 0 of 6; under setting [3], 0 of 6.

Take `COc1cc2c(cc1C(C)c1ccc(OCc3ccccc3)cc1)OCO2` (stereo unspecified): the survivor count (dose: 50.0 mg/kg/injection, schedule: Q01DX005 (ip), vehicle: distilled water + Tween-80) was 6 of 6.

As to `CC(C)N=C(NC(C)C)c1ccc(NC(=O)Nc2ccc(NC(=O)Nc3ccc(C(=NC(C)C)NC(C)C)cc3)cc2)cc1`, the T/C is, setting by setting: (dose: 6.25 mg/kg/injection, schedule: Q01DX005 (ip), vehicle: saline with Tween-80) 125 % of control; under setting [4], 141 % of control. For the same molecule, the survivor count by setting is: under setting [4], 6 of 6; (dose: 25.0 mg/kg/injection, schedule: Q01DX005 (ip), vehicle: saline with Tween-80) 1 of 6; under setting [1], 0 of 6; under setting [2], 0 of 6; under setting [3], 0 of 6.

For the molecule `O=C(NCCSCCSCCSCCNC(=O)Oc1ccccc1)Oc1ccccc1`, under setting [5], the survivor count was 6 of 6.

`CCCCCCCCCC1=C(C#N)C(=O)OCCN1C`: the survivor count under setting [6] was 6 of 6.

On to `CN(C)c1c(-c2ccc(Cl)cc2)cc(-c2ccccc2)[nH]c1=O`, for which, for the setting “dose: 25.0 mg/kg/injection, schedule: Q01DX009 (ip), vehicle: Klucel (hydroxypropylcellulose) (HPC)”, the survivor count is reported as 6 of 6.

Turning to `CC(=O)c1coc2c(c(C)nn2-c2ccccc2)c1=O`, the survivor count by setting is: (dose: 60.0 mg/kg/injection, schedule: Q01DX005 (ip), vehicle: Klucel (hydroxypropylcellulose) (HPC)) 4 of 6; (dose: 120.0 mg/kg/injection, schedule: Q01DX005 (ip), vehicle: Klucel (hydroxypropylcellulose) (HPC)) 0 of 6; (dose: 240.0 mg/kg/injection, schedule: Q01DX005 (ip), vehicle: Klucel (hydroxypropylcellulose) (HPC)) 0 of 6.

In the case of `COc1c2c(c(O)c3c4c(c(C)cc13)C1OC3(C(OC)OC5CC(C)(O)C(OC6CC(C)(O)C(O)C(C)O6)C(C)O5)OC1C(OC)(O4)C31CO1)C(=O)C(O)CC2OC1CC(C)(O)C(OC(C)=O)C(C)O1` (stereo unspecified), the T/C was 138 % of control (dose: 0.03 mg/kg/injection, schedule: Q01DX005 (ip), vehicle: saline); 148 % of control (dose: 0.06 mg/kg/injection, schedule: Q01DX005 (ip), vehicle: saline); 149 % of control under setting [7]. Also, the survivor count is 6 of 6 under setting [7]; 6 of 6 (2×) (dose: 0.5 mg/kg/injection, schedule: Q01DX005 (ip), vehicle: saline); 3 of 6 and 6 of 6 (dose: 1.0 mg/kg/injection, schedule: Q01DX005 (ip), vehicle: saline).

With `CC[N+](CC)(CC)c1ccccc1`, the survivor count is given as 0 of 6 (dose: 50.0 mg/kg/injection, schedule: Q04DX002 (ip), vehicle: saline) and 0 of 6 (dose: 100.0 mg/kg/injection, schedule: Q04DX002 (ip), vehicle: saline).

As to `CCCN1CCc2c([nH]c3cc(OC)ccc23)C1C` (stereo unspecified), the survivor count under setting [3] is 0 of 6.

`COc1ccc2nc(C(=O)NC3COC(=O)C(C(C)(C)O)N(C)C(=O)CN(C)C(=O)CNC(=O)C4CCCNN4C(=O)C(NC(=O)c4nc5ccc(OC)cc5cc4O)COC(=O)C(C(C)(C)O)N(C)C(=O)CN(C)C(=O)CNC(=O)C4C(OC(C)=O)CC=NN4C3=O)c(O)cc2c1` (stereo unspecified): the T/C reads like this: (dose: 5.0 micrograms/kg/injection, schedule: Q01DX005 (ip), vehicle: DMSO) 130 % of control; (dose: 10.0 micrograms/kg/injection, schedule: Q01DX005 (ip), vehicle: DMSO) 148 % of control. Further, the survivor count (dose: 80.0 micrograms/kg/injection, schedule: Q01DX005 (ip), vehicle: DMSO) was 2 of 6 and the survivor count (dose: 160.0 micrograms/kg/injection, schedule: Q01DX005 (ip), vehicle: DMSO) is recorded as 0 of 6.

`CCOC(=O)c1cc(CC)sc1N`: the survivor count (dose: 400.0 mg/kg/injection, schedule: Q01DX009 (ip), vehicle: saline with Tween-80) is reported as 3 of 6.

As for `O=[Se]([O][Sn]([O][Se](=O)c1ccccc1)([O][Se](=O)c1ccccc1)[c]1ccccc1)c1ccccc1` (stereo unspecified), the survivor count (dose: 200.0 mg/kg/injection, schedule: Q01DX009 (ip), vehicle: saline with Tween-80) is on record as 1 of 6, 3 of 6, 4 of 6.

As to `O=c1c2ccccc2[nH]c2c([N+](=O)[O-])ccc(Oc3ccc(CCc4ccc(Oc5ccc([N+](=O)[O-])c6[nH]c7ccccc7c(=O)c56)cc4)cc3)c12`, the survivor count reads like this: (dose: 50.0 mg/kg/injection, schedule: Q01DX009 (ip), vehicle: saline with Tween-80) 6 of 6; (dose: 100.0 mg/kg/injection, schedule: Q01DX009 (ip), vehicle: saline with Tween-80) 6 of 6.

In the case of `CC(C)=CCC/C(C)=C\CN(C)C`, the survivor count (dose: 100.0 mg/kg/injection, schedule: Q04DX002 (ip), vehicle: saline with Tween-80) is on record as 1 of 6; the survivor count (dose: 200.0 mg/kg/injection, schedule: Q04DX002 (ip), vehicle: saline with Tween-80) was 1 of 6; the survivor count (dose: 400.0 mg/kg/injection, schedule: Q04DX002 (ip), vehicle: saline with Tween-80) is listed as 1 of 6.

As to `CN(/N=C\c1ccccc1)C(=N)N(C)/N=C/c1ccccc1`, the survivor count under setting [5] is listed as 3 of 6.

`O=C(Nc1cccc(NC(=O)Nc2cccc(C3=NCCN3)c2)c1)Nc1cccc(C2=NCCN2)c1`: the T/C reads like this: (dose: 27.0 mg/kg/injection, schedule: Q01DX010 (ip), vehicle: saline) 131 % of control; (dose: 40.0 mg/kg/injection, schedule: Q01DX010 (ip), vehicle: saline) 127 % of control; (dose: 66.0 mg/kg/injection, schedule: Q01DX010 (ip), vehicle: saline) 127 % of control.

As for `CSc1cccc(NC(=O)Oc2cc(C)c(Cl)c(C)c2Cl)c1`, the survivor count is, setting by setting: (dose: 50.0 mg/kg/injection, schedule: Q01DX009 (ip), vehicle: DMSO) 1 of 6; (dose: 100.0 mg/kg/injection, schedule: Q01DX009 (ip), vehicle: DMSO) 0 of 6; (dose: 200.0 mg/kg/injection, schedule: Q01DX009 (ip), vehicle: DMSO) 0 of 6.

On to `CCC12C=CCN3CCC4(c5cc(C6c7[nH]c8ccccc8c7CCN7CCCCC67)c(OC)cc5N(C)C4C(O)(C(=O)OC)C1OC(C)=O)C32` (stereo unspecified), for which the T/C is, setting by setting: (dose: 0.5 mg/kg/injection, schedule: Q01DX009 (ip), vehicle: Klucel (hydroxypropylcellulose) (HPC)) 138 % of control; (dose: 2.0 mg/kg/injection, schedule: Q01DX009 (ip), vehicle: Klucel (hydroxypropylcellulose) (HPC)) 144 % of control [4 of 6 alive].

`C=C(C)/C([O-])=N/[N+](C)(C)CC(O)CCCCCCCCCCCC` (stereo unspecified): the survivor count (dose: 5.0 mg/kg/injection, schedule: Q01DX009 (ip), vehicle: Klucel (hydroxypropylcellulose) (HPC)) was 6 of 6.

With `Cc1c(Cl)cccc1Nc1ncccc1C(=O)O`, under setting [3], the survivor count is 3 of 6.

In the case of `O=S1(=O)CS(=O)(=O)OCCCCCO1`, the survivor count (dose: 100.0 mg/kg/injection, schedule: Q01DX005 (ip), vehicle: Klucel (hydroxypropylcellulose) (HPC)) was 0 of 6 and 2 of 6.

As for `CC(N)(CCSCP(=O)(O)O)C(=O)O` (stereo unspecified), the survivor count under setting [6] was 6 of 6.

In the case of `Cc1ccc(C(=O)Nc2ccc(S(=O)(=O)O)c3cc(S(=O)(=O)O)cc(S(=O)(=O)O)c23)cc1NC(=O)c1cccc(NC(=O)Nc2cccc(C(=O)Nc3cc(C(=O)Nc4ccc(S(=O)(=O)O)c5cc(S(=O)(=O)O)cc(S(=O)(=O)O)c45)ccc3C)c2)c1`, the survivor count reads like this: (dose: 100.0 mg/kg/injection, schedule: Q01DX005 (ip), vehicle: saline) 4 of 6; (dose: 200.0 mg/kg/injection, schedule: Q01DX005 (ip), vehicle: saline) 2 of 6.

In the case of `CCCCCCCCCC[CH2][Sn]([CH2]CCCCCCCCCC)([CH2]CCCCCCCCCC)[CH2]CCCCCCCCCC`, the survivor count by setting is: (dose: 50.0 mg/kg/injection, schedule: Q01DX009 (ip), vehicle: saline) 6 of 6; (dose: 100.0 mg/kg/injection, schedule: Q01DX009 (ip), vehicle: saline) 6 of 6; (dose: 200.0 mg/kg/injection, schedule: Q01DX009 (ip), vehicle: saline) 6 of 6.

Consider `O=C(O)CC(SCP(=O)(O)O)C(=O)O` (stereo unspecified), for which the survivor count (dose: 120.0 mg/kg/injection, schedule: Q01DX005 (ip), vehicle: saline) was 6 of 6.

The values above are taken from PubChem BioAssay AID330 (DTP/NCI, 2004).
